# PubChem BioAssay AID504834 (National Center for Advancing Translational Sciences (NCATS), 2011)
# The campaign covered roughly 320,000 compounds. About 22,000 (6.9%) were called active. Inconclusive results, whose numbers are uncertain, are shown with a selection of clear calls. The call rests on the fitted dose curve; in most records, active means well fitted inhibition curve with a large enough effect; inconclusive means small, poorly fitted or top-dose-only effect, or another doubt; inactive means no such curve, though single readings can be large or run the other way. Where the call is inconclusive, the potency comes from a doubtful curve fit.
# Assay: Primary qHTS for delayed death inhibitors of the malarial parasite plastid, 96 hour incubation
# Conditions: P. falciparum luciferase reporter growth; series mostly up to 28.7 µM
# Procedure, shortened: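 P. falciparum expressing integrated firefly luciferase, in erythrocytes at 2% hematocrit, 0.05% parasitemia, incubated with compounds 96 h at 37 C, 5% CO2. Growth inhibition read as loss of luminescence; two-generation exposure targets delayed-death apicoplast inhibitors.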
# Potency means the concentration at half of the fitted maximal effect.
row,SMILES,Potency
1,CCCCc1nc2cc(C(=O)N3CCCCC3CCNC(C)=O)ccc2o1 (stereo unspecified),inactive
2,CCOC(=O)CCNC(=O)N1CCCC(C(=O)c2ccc3c(c2)OCO3)C1 (stereo unspecified),"inconclusive: 10.4 µM [inhibitor, single point]"
3,CCc1nc(SCC(=O)Nc2cccc(C(F)(F)F)c2)c2c(=O)n(C)c(=O)n(C)c2n1,"inconclusive: 9.28 µM [inhibitor, single point]"
4,O=C(NCCc1ccccc1)c1ccc(Cn2c(SCc3cccc(F)c3)nc3cccnc32)cc1,active: 3.29 µM
5,CCN(CC)S(=O)(=O)c1ccc(OC)c(NC(=O)c2cccc(C)c2[N+](=O)[O-])c1,inactive
6,CCOC(=O)N1CCN(C(=O)Cn2ccc3c(OC)cccc3c2=O)CC1,"inconclusive: 4.15 µM [inhibitor, partial curve, poor fit]"
7,CC(=O)Nc1ccc(NC(=O)c2ccc(-n3c(C)ccc3C)cc2)cc1,"inconclusive: 10.4 µM [inhibitor, single point]"
8,O=c1oc(-c2ccc([N+](=O)[O-])cc2)nc2ccc(O)cc12,inactive
9,COc1ccc(C2C(C#N)=C(N)Oc3cc(N)ccc32)cc1 (stereo unspecified),"inconclusive: 14.7 µM [inhibitor, partial curve, poor fit]"
10,COCCNC(=O)CCc1c(C)nc2c(-c3ccc(F)cc3)c(C)nn2c1C,active: 13.1 µM
11,CCC(Cc1ccccc1)NC(=O)CCc1ccccc1 (stereo unspecified),"inconclusive: 5.86 µM [inhibitor, single point]"
12,CCOC(=O)C1=C(Nc2ccc(Cl)cc2)OCC1=O,active: 2.62 µM
13,CCN(CC(=O)N1CCN(Cc2ccccc2)CC1)S(=O)(=O)c1ccccc1,"inconclusive: 18.5 µM [inhibitor, single point]"
14,COC(=O)C1=C(C)N(c2ccc(C(=O)OC)cc2)C(=O)C1,"inconclusive: 4.65 µM [inhibitor, partial curve]"
15,CC1CC(C)CN(C(=O)Cc2c(C(=O)O)[nH]c3ccc(Cl)cc23)C1 (stereo unspecified),inactive
16,CCn1c(NCc2ccc(OC)cc2)nc2ccccc21,inactive
17,COc1ccc(C(=O)CCC(=O)O)cc1,"inconclusive: 20.8 µM [inhibitor, single point]"
18,COc1cc2c(cc1OC)C(C)N(S(=O)(=O)c1ccc(Cl)nc1)CC2 (stereo unspecified),"inconclusive: 11.7 µM [inhibitor, single point]"

# Exported with bars between the fields: entries from further up
row | SMILES | Potency
2 | CCOC(=O)CCNC(=O)N1CCCC(C(=O)c2ccc3c(c2)OCO3)C1 (stereo unspecified) | inconclusive: 10.4 µM [inhibitor, single point]
3 | CCc1nc(SCC(=O)Nc2cccc(C(F)(F)F)c2)c2c(=O)n(C)c(=O)n(C)c2n1 | inconclusive: 9.28 µM [inhibitor, single point]
4 | O=C(NCCc1ccccc1)c1ccc(Cn2c(SCc3cccc(F)c3)nc3cccnc32)cc1 | active: 3.29 µM

# Next part:

row,SMILES,Potency
1,Cc1[nH]c2ccc(F)cc2c1CCN(Cc1cccnc1)C(=S)Nc1cccc(F)c1,"inconclusive: 14.7 µM [inhibitor, partial curve, poor fit]"
2,CSc1ncc(CN2CCN(C3CCCCC3)C(CCO)C2)cn1 (stereo unspecified),"inconclusive: 10.4 µM [inhibitor, single point]"
3,CCCCn1c(-c2cccc(F)c2)nc2c1c(=O)[nH]c(=O)n2CC(C)C,"inconclusive: 7.38 µM [inhibitor, partial curve]"
4,COC(=O)c1ccc(CNC(=O)C2CCC(=O)N(CCc3ccccc3)C2)cc1 (stereo unspecified),"inconclusive: 10.4 µM [inhibitor, single point]"
5,COc1cccc(C(=O)N2CCN(C3CCC(c4ccccc4)CC3)CC2)c1OC (stereo unspecified),"inconclusive: 4.65 µM [inhibitor, partial curve, poor fit]"
6,COC(C(=O)Nc1ccnn1C1CCN(Cc2cnn(C)c2)CC1)c1ccccc1 (stereo unspecified),inactive
7,Cc1ccc(-c2cc(C(F)F)n3ncc(C(=O)Nc4cn(C)nc4C)c3n2)cc1,inactive
8,O=C(NCCC1=CCCCC1)c1ccc2c(c1)N(Cc1ccccc1)C(=O)CS2,active: 5.86 µM
9,CC1CC1C(=O)N(CCC1=CCCCC1)c1c(N)n(Cc2ccccc2)c(=O)[nH]c1=O (stereo unspecified),"inconclusive: 13.1 µM [inhibitor, partial curve, poor fit]"
10,Cc1ccc(C(=O)OC(C)CN2C(C)CCCC2C)cc1 (stereo unspecified),inactive
11,O=C(NCc1ccccn1)C1CC(c2ccc(Cl)c(Cl)c2)=NO1 (stereo unspecified),inactive
12,O=C(CSc1nccc(=O)[nH]1)Nc1cccc2ccccc12,inactive
13,O=C(Nc1ccccc1Br)c1ccccc1-c1ccccc1,active: 7.38 µM
14,CN(CC(=O)N1CCc2ccccc21)S(=O)(=O)c1cccs1,inactive
15,CC(NC(=O)c1ccccc1F)c1nnc(SCC(=O)N2CCN(c3ccccc3)CC2)n1C (stereo unspecified),"inconclusive: 23.3 µM [inhibitor, single point]"
16,COc1ccc(C(=O)N/N=C\c2coc3ccc(C)cc3c2=O)cc1,inactive
17,COc1ccccc1NC(=O)Cc1noc(CSc2nnc(C)n2C)n1,"inconclusive: 13.1 µM [inhibitor, single point]"
18,COc1ccccc1N1CN(Cc2ccccc2)CNC1=S,"inconclusive: 11.7 µM [inhibitor, single point]"
